# Data taken from the supplement of paper PMC10849652.
# Protein sequences, listed by entry. Tags and fused reporters are not part of them. Lines headed by an entry give the natural chain unless they say otherwise; changes in a name come on top.
# UniProt Q96SZ6: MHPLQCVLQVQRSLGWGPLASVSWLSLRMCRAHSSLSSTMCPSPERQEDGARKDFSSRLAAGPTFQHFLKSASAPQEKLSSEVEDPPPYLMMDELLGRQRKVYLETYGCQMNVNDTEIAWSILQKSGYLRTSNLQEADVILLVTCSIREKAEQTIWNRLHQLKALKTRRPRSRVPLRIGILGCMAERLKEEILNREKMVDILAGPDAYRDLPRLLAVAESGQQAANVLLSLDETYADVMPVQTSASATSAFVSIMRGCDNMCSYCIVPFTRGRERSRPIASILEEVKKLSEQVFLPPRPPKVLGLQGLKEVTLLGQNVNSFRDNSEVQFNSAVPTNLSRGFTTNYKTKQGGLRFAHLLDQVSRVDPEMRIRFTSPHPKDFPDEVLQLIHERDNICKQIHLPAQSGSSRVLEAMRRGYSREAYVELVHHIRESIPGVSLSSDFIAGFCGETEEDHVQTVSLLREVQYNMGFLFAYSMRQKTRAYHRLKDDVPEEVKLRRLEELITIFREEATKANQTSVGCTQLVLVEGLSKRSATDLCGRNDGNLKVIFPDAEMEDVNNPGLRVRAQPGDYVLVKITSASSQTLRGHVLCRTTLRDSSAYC
# UniProt Q8IYX8: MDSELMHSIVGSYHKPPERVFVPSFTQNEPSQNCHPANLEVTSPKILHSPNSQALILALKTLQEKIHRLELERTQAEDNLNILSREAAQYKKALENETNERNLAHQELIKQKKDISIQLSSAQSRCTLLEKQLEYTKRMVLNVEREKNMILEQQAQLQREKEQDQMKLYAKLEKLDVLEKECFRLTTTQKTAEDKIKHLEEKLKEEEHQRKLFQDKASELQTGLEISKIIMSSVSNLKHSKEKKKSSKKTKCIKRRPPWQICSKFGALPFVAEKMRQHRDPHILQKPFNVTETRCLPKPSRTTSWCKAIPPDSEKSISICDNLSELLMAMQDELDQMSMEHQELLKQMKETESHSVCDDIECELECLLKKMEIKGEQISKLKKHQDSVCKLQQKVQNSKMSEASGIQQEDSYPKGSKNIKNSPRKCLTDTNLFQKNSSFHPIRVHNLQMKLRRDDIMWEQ
# UniProt Q8TCZ2: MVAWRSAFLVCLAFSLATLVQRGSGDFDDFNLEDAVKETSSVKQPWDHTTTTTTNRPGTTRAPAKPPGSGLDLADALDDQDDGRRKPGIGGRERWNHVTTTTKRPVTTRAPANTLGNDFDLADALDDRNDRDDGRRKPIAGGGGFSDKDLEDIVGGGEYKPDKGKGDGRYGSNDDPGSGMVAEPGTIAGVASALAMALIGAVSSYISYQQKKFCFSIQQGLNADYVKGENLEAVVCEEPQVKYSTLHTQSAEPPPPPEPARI
# UniProt Q6ZTR5: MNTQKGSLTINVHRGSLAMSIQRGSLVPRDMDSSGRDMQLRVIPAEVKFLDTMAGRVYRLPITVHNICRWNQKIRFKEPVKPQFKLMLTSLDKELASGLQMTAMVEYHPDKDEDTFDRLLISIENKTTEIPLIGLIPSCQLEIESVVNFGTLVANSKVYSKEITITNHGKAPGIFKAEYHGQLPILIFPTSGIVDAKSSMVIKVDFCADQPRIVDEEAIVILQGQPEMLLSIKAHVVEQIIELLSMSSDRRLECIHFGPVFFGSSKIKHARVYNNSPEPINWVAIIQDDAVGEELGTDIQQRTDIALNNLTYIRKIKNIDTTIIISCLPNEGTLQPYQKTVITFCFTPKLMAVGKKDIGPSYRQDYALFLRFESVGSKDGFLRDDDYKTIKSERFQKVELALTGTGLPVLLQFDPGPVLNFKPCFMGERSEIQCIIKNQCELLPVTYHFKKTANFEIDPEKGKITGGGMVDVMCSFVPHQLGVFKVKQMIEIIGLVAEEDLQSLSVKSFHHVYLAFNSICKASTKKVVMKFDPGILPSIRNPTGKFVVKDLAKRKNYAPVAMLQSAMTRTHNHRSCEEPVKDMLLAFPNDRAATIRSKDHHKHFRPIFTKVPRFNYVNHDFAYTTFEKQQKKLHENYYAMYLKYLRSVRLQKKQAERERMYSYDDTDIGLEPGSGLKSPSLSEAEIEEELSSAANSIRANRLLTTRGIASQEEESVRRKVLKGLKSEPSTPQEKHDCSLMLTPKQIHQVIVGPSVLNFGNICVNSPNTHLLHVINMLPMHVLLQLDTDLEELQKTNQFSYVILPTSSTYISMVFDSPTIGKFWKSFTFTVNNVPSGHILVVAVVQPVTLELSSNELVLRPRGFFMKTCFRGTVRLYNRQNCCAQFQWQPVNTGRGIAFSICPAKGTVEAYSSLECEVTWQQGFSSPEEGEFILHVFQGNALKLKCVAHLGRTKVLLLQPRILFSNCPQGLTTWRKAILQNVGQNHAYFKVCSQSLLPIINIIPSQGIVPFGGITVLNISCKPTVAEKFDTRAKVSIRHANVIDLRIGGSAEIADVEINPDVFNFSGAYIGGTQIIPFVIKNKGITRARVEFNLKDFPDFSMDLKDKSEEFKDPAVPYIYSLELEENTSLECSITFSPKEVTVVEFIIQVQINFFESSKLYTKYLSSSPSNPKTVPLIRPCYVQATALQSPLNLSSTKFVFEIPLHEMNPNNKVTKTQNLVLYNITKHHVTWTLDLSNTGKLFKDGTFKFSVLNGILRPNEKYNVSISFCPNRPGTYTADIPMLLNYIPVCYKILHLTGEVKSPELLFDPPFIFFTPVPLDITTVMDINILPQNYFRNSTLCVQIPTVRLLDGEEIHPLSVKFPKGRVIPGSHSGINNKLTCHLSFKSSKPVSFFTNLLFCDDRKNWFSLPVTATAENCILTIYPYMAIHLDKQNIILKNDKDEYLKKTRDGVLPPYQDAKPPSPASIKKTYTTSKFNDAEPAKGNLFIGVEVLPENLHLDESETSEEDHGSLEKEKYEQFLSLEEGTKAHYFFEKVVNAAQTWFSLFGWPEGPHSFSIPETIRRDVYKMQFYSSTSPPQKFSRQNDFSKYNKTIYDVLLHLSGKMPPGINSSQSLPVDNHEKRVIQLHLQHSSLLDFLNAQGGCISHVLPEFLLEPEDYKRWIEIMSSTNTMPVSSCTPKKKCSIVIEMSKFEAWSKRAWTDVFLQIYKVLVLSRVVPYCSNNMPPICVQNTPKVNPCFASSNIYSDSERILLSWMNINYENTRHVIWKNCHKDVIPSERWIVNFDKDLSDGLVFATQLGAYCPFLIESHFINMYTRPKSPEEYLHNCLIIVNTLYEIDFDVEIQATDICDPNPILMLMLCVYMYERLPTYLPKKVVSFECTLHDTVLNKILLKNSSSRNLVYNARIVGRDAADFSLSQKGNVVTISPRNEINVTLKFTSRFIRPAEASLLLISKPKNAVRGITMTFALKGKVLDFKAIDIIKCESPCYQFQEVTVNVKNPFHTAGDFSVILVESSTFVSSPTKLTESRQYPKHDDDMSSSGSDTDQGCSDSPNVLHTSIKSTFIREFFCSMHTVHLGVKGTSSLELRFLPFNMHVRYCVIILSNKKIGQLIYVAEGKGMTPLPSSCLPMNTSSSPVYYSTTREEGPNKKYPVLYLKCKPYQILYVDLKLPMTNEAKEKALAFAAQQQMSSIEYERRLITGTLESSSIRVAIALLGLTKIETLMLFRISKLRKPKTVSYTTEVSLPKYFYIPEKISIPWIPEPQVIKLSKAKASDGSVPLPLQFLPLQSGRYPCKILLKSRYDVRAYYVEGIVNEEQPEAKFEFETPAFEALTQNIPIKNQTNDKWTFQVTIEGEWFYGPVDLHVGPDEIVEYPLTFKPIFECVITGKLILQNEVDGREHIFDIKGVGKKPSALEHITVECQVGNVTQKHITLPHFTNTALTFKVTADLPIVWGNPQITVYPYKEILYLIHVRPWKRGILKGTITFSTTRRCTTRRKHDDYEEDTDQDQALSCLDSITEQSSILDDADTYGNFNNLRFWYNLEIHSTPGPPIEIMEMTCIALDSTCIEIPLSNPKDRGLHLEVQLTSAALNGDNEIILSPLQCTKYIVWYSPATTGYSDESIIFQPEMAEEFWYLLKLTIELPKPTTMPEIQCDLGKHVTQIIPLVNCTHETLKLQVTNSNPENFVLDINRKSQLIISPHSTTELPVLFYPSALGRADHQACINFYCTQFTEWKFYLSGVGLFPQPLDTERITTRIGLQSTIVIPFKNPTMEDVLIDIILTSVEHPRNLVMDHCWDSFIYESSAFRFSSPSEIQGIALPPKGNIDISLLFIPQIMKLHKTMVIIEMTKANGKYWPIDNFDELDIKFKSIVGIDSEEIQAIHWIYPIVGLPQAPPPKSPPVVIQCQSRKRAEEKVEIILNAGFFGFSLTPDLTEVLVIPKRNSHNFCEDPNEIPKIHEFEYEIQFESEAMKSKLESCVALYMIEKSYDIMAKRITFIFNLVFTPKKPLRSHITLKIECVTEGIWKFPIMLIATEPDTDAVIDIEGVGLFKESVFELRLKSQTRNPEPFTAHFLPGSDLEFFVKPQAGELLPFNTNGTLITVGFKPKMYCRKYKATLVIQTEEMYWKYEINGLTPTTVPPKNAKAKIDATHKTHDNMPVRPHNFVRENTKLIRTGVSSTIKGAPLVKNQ
# UniProt P27701: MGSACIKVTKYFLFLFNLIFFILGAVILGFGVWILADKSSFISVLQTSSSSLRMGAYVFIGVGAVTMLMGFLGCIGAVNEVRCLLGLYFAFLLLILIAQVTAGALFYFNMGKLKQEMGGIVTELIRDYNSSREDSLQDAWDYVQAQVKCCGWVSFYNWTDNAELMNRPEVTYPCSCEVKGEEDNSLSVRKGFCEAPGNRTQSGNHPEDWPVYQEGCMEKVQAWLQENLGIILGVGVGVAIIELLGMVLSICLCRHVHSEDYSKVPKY
# UniProt A8MTT3: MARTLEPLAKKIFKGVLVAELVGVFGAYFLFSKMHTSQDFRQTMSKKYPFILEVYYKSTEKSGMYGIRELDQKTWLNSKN
# UniProt P14209: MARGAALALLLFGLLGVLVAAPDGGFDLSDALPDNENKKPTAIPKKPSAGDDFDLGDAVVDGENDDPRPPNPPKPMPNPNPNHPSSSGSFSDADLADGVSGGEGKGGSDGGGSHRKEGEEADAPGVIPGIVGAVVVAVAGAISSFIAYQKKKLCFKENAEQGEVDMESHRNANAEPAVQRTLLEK
# UniProt P30305: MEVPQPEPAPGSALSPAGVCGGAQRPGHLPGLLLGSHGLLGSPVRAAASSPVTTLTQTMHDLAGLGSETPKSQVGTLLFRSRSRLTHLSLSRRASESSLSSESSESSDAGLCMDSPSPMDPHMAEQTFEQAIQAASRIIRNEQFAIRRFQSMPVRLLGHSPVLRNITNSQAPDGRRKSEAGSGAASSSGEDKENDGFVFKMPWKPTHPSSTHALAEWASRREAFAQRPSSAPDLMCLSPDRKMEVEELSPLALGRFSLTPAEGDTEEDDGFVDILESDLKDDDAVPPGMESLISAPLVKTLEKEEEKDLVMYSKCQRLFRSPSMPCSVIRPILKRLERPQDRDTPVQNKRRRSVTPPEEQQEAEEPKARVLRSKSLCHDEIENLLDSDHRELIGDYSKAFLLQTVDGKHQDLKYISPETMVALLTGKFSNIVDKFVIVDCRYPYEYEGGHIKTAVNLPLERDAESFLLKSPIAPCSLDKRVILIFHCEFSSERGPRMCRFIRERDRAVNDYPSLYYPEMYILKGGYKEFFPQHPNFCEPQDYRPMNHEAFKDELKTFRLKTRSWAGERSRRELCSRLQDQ
# UniProt Q9NSP4: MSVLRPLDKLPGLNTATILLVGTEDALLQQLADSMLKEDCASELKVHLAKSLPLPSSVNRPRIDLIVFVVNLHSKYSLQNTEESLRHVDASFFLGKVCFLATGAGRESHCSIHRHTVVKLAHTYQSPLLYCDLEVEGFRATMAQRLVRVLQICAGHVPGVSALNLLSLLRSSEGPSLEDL
# UniProt Q00536: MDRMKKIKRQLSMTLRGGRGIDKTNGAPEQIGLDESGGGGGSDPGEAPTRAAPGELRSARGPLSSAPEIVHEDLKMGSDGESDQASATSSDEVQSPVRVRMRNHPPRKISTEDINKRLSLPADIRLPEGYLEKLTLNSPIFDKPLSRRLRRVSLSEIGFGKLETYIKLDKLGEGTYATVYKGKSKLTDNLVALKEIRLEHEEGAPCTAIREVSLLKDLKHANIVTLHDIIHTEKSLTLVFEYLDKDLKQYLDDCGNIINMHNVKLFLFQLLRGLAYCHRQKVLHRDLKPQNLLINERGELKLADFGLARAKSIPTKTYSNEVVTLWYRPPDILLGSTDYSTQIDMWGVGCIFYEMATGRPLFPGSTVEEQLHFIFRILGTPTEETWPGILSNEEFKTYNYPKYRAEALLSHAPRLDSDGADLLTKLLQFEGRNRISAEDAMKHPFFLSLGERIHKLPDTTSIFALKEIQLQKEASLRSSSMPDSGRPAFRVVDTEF
# UniProt Q6IPU0: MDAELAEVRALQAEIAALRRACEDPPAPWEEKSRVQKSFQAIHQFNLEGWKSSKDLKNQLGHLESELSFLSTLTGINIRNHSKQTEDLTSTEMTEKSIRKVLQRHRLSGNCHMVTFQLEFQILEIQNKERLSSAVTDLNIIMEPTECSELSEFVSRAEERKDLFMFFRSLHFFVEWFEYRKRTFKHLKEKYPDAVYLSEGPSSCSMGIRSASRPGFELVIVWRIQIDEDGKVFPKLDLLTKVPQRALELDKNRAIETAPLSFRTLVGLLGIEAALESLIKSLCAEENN
# The other results are listed elsewhere or left out.
# Tests used:
# Assay in all cases: log2 fold change, soluble protein after heating vs DMSO (PISA); higher = thermal stabilisation; K562 lysate, 10 uM; active = over 0.2 and 3.5 SD of the protein, either way, in both replicates (recomputed)
# lapatinib = compound: CS(=O)(=O)CCNCc1ccc(-c2ccc3ncnc(Nc4ccc(OCc5cccc(F)c5)c(Cl)c4)c3c2)o1 [lapatinib]
# Procedure, shortened: (§1)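 Thermal stability, expressed as log-two fold change relative to solvent controls, is given from duplicates. Crude K562 extract in PBS pH 7.4 with 1 mM MgCl2, at 1 mg/mL protein, was treated with 10 μM compound for 30 min and heated in aliquots for 3 min across 48°C-58°C. After pooling, adjustment to 0.5% NP-40 at 4°C and centrifugation at 21,000xg for 90 min, supernatant protein was measured by TMTpro 16plex LC-MS/MS with channel sums equalised.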
# crizotinib = compound: C[C@@H](Oc1cc(-c2cnn(C3CCNCC3)c2)cnc1N)c1c(Cl)ccc(F)c1Cl [crizotinib]
# Procedure, shortened: as §1
# [1] = compound: C[C@H](C1=CC=C(C=C1)C(=O)NC2=C3C=CNC3=NC=C2)N
# Procedure, shortened: as §1
# duvelisib = compound: C[C@H](Nc1ncnc2nc[nH]c12)c1cc2cccc(Cl)c2c(=O)n1-c1ccccc1 [duvelisib]
# Procedure, shortened: as §1
# gandotinib = compound: Cc1cc(Nc2cc(CN3CCOCC3)c3nc(C)c(Cc4ccc(Cl)cc4F)n3n2)n[nH]1 [gandotinib]
# Procedure, shortened: as §1
# doramapimod = compound: Cc1ccc(-n2nc(C(C)(C)C)cc2NC(=O)Nc2ccc(OCCN3CCOCC3)c3ccccc23)cc1 [doramapimod]
# Procedure, shortened: as §1
# [2] = compound: Cc1cccc(CC(=O)N2CCc3c2ccc(-c2cn(C)c4ncnc(N)c24)c3F)n1
# Procedure, shortened: as §1
# nilotinib = compound: Cc1cn(-c2cc(NC(=O)c3ccc(C)c(Nc4nccc(-c5cccnc5)n4)c3)cc(C(F)(F)F)c2)cn1 [nilotinib]
# Procedure, shortened: as §1
# [3] = compound: Cc1nc(Nc2n[nH]c3c2CN(C(=O)N[C@H](CN(C)C)c2ccccc2)C3(C)C)c2sccc2n1
# Procedure, shortened: as §1
# dasatinib = compound: Cc1nc(Nc2ncc(C(=O)Nc3c(C)cccc3Cl)s2)cc(N2CCN(CCO)CC2)n1 [dasatinib]
# Procedure, shortened: as §1
# [4] = compound: Cc1ncc(-c2ccnc(Nc3ccc(S(C)(=O)=O)cc3)n2)n1C(C)C
# Procedure, shortened: as §1
# [5] = compound: Cn1cc(-c2ccc3c(c2)CCN3C(=O)Cc2cccc(C(F)(F)F)c2)c2c(N)ncnc21
# Procedure, shortened: as §1
# quisinostat = compound: Cn1cc(CNCC2CCN(c3ncc(C(=O)NO)cn3)CC2)c2ccccc21 [quisinostat]
# Procedure, shortened: as §1
# tipifarnib = compound: Cn1cncc1[C@@](N)(c1ccc(Cl)cc1)c1ccc2c(c1)c(-c1cccc(Cl)c1)cc(=O)n2C [tipifarnib]
# Procedure, shortened: as §1
# [6] = compound: NC(=O)Nc1cc(-c2cccc(F)c2)sc1C(=O)N[C@H]1CCCNC1
# Procedure, shortened: as §1
# [7] = compound: NC(=O)c1cnc(N[C@@H]2CCCC[C@@H]2N)nc1Nc1cccc(-n2nccn2)c1
# Procedure, shortened: as §1
# [8] = compound: NC1(c2ccc(-c3nc4ccn5c(=O)[nH]nc5c4cc3-c3ccccc3)cc2)CCC1
# Procedure, shortened: as §1
# pictilisib = compound: CS(=O)(=O)N1CCN(Cc2cc3nc(-c4cccc5[nH]ncc45)nc(N4CCOCC4)c3s2)CC1 [pictilisib]
# Procedure, shortened: as §1
# tozasertib = compound: Cc1cc(Nc2cc(N3CCN(C)CC3)nc(Sc3ccc(NC(=O)C4CC4)cc3)n2)n[nH]1 [tozasertib]
# Procedure, shortened: as §1
# bafetinib = compound: Cc1ccc(NC(=O)c2ccc(CN3CC[C@H](N(C)C)C3)c(C(F)(F)F)c2)cc1Nc1nccc(-c2cncnc2)n1 [bafetinib]
# Procedure, shortened: as §1
Target,log2 fold change (lapatinib),log2 fold change (crizotinib),log2 fold change [1],log2 fold change (duvelisib),log2 fold change (gandotinib),log2 fold change (doramapimod),log2 fold change [2],log2 fold change (nilotinib),log2 fold change [3],log2 fold change (dasatinib),log2 fold change [4],log2 fold change [5],log2 fold change (quisinostat),log2 fold change (tipifarnib),log2 fold change [6],log2 fold change [7],log2 fold change [8],log2 fold change (pictilisib),log2 fold change (tozasertib),log2 fold change (bafetinib)
CDC37 (UniProt K7EKQ2),inactive: -0.082,inactive: 0.092,inactive: 0.032,inactive: 0.025,inactive: 0.105,inactive: -0.158,inactive: -0.322,inactive: 0.018,inactive: -0.023,inactive: -0.021,inactive: -0.22,inactive: -0.086,inactive: 0.024,inactive: -0.194,inactive: 0.097,inactive: -0.042,inactive: 0.14,–,–,–
CDK5RAP1 (UniProt Q96SZ6),–,inactive: -0.027,inactive: 0.051,inactive: -0.044,inactive: 0.071,inactive: 0,inactive: -0.009,inactive: -0.007,inactive: 0.002,inactive: 0.037,inactive: 0.019,inactive: 0.011,inactive: 0.049,inactive: -0.002,inactive: -0.004,–,inactive: -0.013,inactive: 0.184,inactive: 0.015,inactive: 0.018
CDK17 isoform 2 (UniProt Q00537),–,inactive: 0.026,inactive: 0.096,inactive: -0.04,inactive: 0.042,inactive: 0.15,inactive: -0.359,inactive: 0.061,inactive: 0.117,inactive: -0.068,inactive: 0.096,inactive: 0.011,inactive: -0.069,inactive: -0.423,inactive: -0.057,–,inactive: 0.068,inactive: -0.008,inactive: -0.113,inactive: -0.033
"CDC42, A0A494C1M1",inactive: 0.005,–,inactive: -0.18,–,inactive: -0.233,–,inactive: -0.048,inactive: -0.128,inactive: 0.009,–,inactive: 0.079,–,–,inactive: 0.02,–,inactive: 0.005,–,–,–,–
CEP57L1 (UniProt Q8IYX8),–,inactive: 0.056,inactive: -0.039,inactive: -0.004,inactive: -0.022,inactive: 0.05,inactive: 0.073,inactive: 0.246,inactive: -0.129,inactive: 0,inactive: -0.014,inactive: 0.34,inactive: -0.101,inactive: -0.015,inactive: 0.041,–,inactive: 0.031,inactive: 0.076,inactive: -0.07,inactive: -0.184
CDKL5 (UniProt O76039),inactive: -0.207,inactive: -0.167,inactive: -0.128,inactive: 0.073,inactive: 0.537,inactive: -0.057,inactive: -0.073,–,–,inactive: -0.095,–,inactive: 0.188,inactive: -0.283,–,inactive: -0.002,inactive: 0.069,–,–,inactive: 0.024,–
CD99L2 isoform 5 (UniProt Q8TCZ2),inactive: -0.13,inactive: 0.021,inactive: 0.089,inactive: -0.098,inactive: 0.004,inactive: -0.096,inactive: -0.004,inactive: -0.071,inactive: -0.04,inactive: -0.077,inactive: -0.064,inactive: 0.107,inactive: 0.044,inactive: -0.079,inactive: 0.036,inactive: -0.205,inactive: -0.015,–,–,–
CFAP47 (UniProt Q6ZTR5),inactive: -0.05,inactive: -0.083,inactive: -0.329,inactive: -0.042,inactive: 0.321,inactive: -0.055,inactive: 0.257,inactive: 0.078,inactive: 0,inactive: 0,inactive: 0.101,inactive: -0.092,inactive: -0.194,inactive: -0.095,inactive: 0.123,inactive: -0.125,inactive: -0.321,–,inactive: -0.165,–
CEP152 (UniProt O94986),–,inactive: -0.22,inactive: -0.089,inactive: -0.017,inactive: 0.006,inactive: -0.057,inactive: 0.058,inactive: -0.058,inactive: 0.108,inactive: 0.012,inactive: -0.014,inactive: -0.017,active: -0.413,inactive: 0.02,inactive: 0.058,–,inactive: 0.112,inactive: -0.013,inactive: -0.114,inactive: -0.071
CD82 (UniProt P27701),inactive: -0.024,–,inactive: -0.098,–,inactive: 0.192,–,inactive: 0.029,inactive: 0.125,inactive: 0.074,–,inactive: -0.039,–,–,inactive: 0.16,–,inactive: 0.074,inactive: -0.076,–,–,–
CEBPZOS (UniProt A8MTT3),inactive: -0.001,inactive: -0.025,inactive: -0.352,inactive: 0.035,inactive: -0.044,inactive: 0.177,active: 0.203,inactive: 0.069,inactive: -0.01,inactive: 0.053,inactive: 0.024,inactive: 0.044,inactive: 0.02,inactive: -0.017,inactive: -0.039,inactive: -0.004,inactive: -0.008,–,inactive: 0.039,–
CD99 (UniProt P14209),inactive: 0.019,inactive: -0.077,inactive: 0.051,inactive: 0.102,inactive: -0.038,inactive: 0.031,inactive: 0.007,inactive: -0.016,inactive: -0.018,inactive: 0.147,inactive: 0.003,inactive: -0.058,inactive: -0.057,inactive: -0.069,inactive: 0.054,inactive: -0.065,inactive: -0.094,–,–,–
CDC25B (UniProt P30305),inactive: 0.223,–,inactive: -0.004,inactive: -0.018,inactive: -0.065,inactive: 0.009,inactive: -0.034,inactive: -0.025,inactive: -0.047,inactive: 0.033,inactive: 0.002,inactive: 0.031,inactive: -0.035,inactive: 0.061,inactive: -0.049,inactive: 0.121,inactive: 0.031,inactive: -0.002,inactive: -0.039,inactive: -0.033
CENPM (UniProt Q9NSP4),–,inactive: -0.291,inactive: -0.06,inactive: 0.132,inactive: -0.114,inactive: 0.083,inactive: 0.069,inactive: -0.188,inactive: 0.172,inactive: -0.034,inactive: 0.106,inactive: -0.003,inactive: -0.26,inactive: -0.176,inactive: 0.007,–,inactive: -0.007,inactive: -0.1,inactive: 0.253,inactive: -0.111
CDC14A isoform 2 (UniProt Q9UNH5),inactive: 0.062,inactive: 0.031,–,–,–,inactive: 0.108,–,inactive: -0.076,inactive: 0.07,–,inactive: -0.001,–,inactive: -0.174,inactive: -0.019,inactive: 0.083,inactive: 0.101,–,–,–,–
CDC42BPG (UniProt Q6DT37),inactive: -0.08,inactive: -0.167,–,inactive: -0.017,–,inactive: -0.042,–,inactive: -0.103,inactive: 0.065,inactive: -0.005,inactive: 0.081,inactive: 0.001,inactive: -0.046,inactive: -0.111,inactive: 0.252,inactive: -0.012,–,–,–,–
CEP164 (UniProt Q9UPV0),inactive: -0.077,–,–,–,–,–,–,–,–,–,–,–,–,–,–,inactive: 0.033,inactive: -0.092,inactive: 0.096,–,inactive: 0.069
CEP170B (UniProt Q9Y4F5),inactive: 0.021,inactive: -0.117,inactive: -0.111,inactive: -0.077,inactive: -0.001,inactive: 0.041,inactive: 0.078,–,–,inactive: -0.061,–,inactive: -0.014,inactive: -0.016,–,inactive: -0.069,inactive: -0.211,–,–,inactive: 0.022,–
CDK16 isoform 2 (UniProt Q00536),inactive: 0.046,inactive: 0.063,inactive: -0.016,inactive: 0.043,active: 0.533,inactive: 0.012,inactive: -0.05,inactive: 0.043,inactive: 0.412,inactive: 0.033,active: 0.433,inactive: -0.033,inactive: -0.044,inactive: -0.01,inactive: -0.016,inactive: 0.081,inactive: -0.124,–,–,inactive: -0.007
CENPJ (UniProt Q9HC77),inactive: 0.073,inactive: -0.043,–,inactive: -0.105,–,inactive: 0.073,–,–,–,inactive: 0.061,–,inactive: 0.067,inactive: -0.122,–,inactive: 0.015,inactive: -0.296,inactive: -0.014,inactive: -0.034,inactive: -0.046,inactive: -0.113
CEP295 isoform 3 (UniProt Q9C0D2),inactive: -0.038,inactive: 0.004,active: -0.365,–,inactive: 0.058,inactive: 0.059,inactive: 0.072,inactive: 0.016,inactive: 0.046,–,inactive: 0.006,–,inactive: 0.017,inactive: 0.062,inactive: -0.038,inactive: 0.14,inactive: 0.046,inactive: 0.057,inactive: 0.111,inactive: 0.031
CDC25A (UniProt P30304),inactive: -0.016,–,–,inactive: -0.014,–,inactive: 0.114,–,inactive: 0.013,inactive: -0.01,inactive: -0.035,inactive: -0.021,inactive: 0.024,inactive: 0.006,inactive: 0.011,inactive: 0.017,inactive: 0.016,inactive: 0.025,–,–,–
CENPP (UniProt Q6IPU0),inactive: 0.067,inactive: 0.002,inactive: -0.02,inactive: 0.029,inactive: -0.102,inactive: 0.022,inactive: 0.04,inactive: 0.085,inactive: 0.269,inactive: 0.022,inactive: 0.008,inactive: 0.277,inactive: 0.002,inactive: 0.104,inactive: 0.061,inactive: -0.095,inactive: 0.086,–,inactive: 0.135,–

# Single entries from the list.
# For log2 fold change (tipifarnib), CDC42, A0A494C1M1 is listed with inactive: 0.02
# For log2 fold change (tipifarnib), CD82 (UniProt P27701) is listed with inactive: 0.16
